Experimental data as given in PubChem BioAssay AID1347076 (National Center for Advancing Translational Sciences (NCATS), 2019).
The whole screen tested about 400,000 compounds, of which about 13,000 (3.2%) were called active. Inconclusive means that the source gave no clear call. Such entries were picked first, then a sample of the others. The call rests on the fitted dose curve; in most records, active means well fitted cell-killing curve with a large enough effect; inconclusive means small, poorly fitted or top-dose-only effect, or effect the other way; inactive means flat fitted curve, though single readings scatter. Potencies beside an inconclusive call are fits to weak or partial responses and may not hold up.

experiment: qHTS assay for MDR1-selective chemotherapeutics: Primary screen using the drug-selected MDR subline cells KB-V1; conditions: KB-V1 MDR cells viability, CellTiter-Glo, 72 h; activity change, negative = cytotoxicity: at 46.1 µM (top of the series); further: nearly all actives have a fitted effect of over 60% in size
Method in brief: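 Cells of the MDR subline KB-V1 are plated, dosed with compound at multiple concentrations, and incubated 72 h at 37 degrees C; CellTiter-Glo is then added and luminescence read after 10 min.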
On the % scale 0 is the no-effect control and ±100 the full control effect; potency means the concentration at half of the fitted maximal effect.

Row | Structure (SMILES) | Potency | activity change, negative = cytotoxicity
1 | O=P(c1ccccc1)(c1nc2ccccc2s1)N1CCOCC1 (stereo not drawn) | inconclusive: 14.6 µM [cytotoxic, partial curve] | 
2 | Brc1ccccc1 |  | inactive: 0%
3 | CCC(C)N1C(=O)/C(=C\c2cnc(N(C)C)nc2)C(=O)NC1=S (stereo not drawn) |  | inactive: 3.26%
4 | CNC(=O)Oc1cccc(-c2cn3cc(OC(=O)NC)ccc3n2)c1 |  | inactive: 17.8%
5 | O=c1c2ccccc2nc(/C=C\c2ccccc2F)n1-c1ccc(O)cc1 |  | inactive: 1.13%
6 | CC1C(=O)OC2CCN3CC=C(COC(=O)C(C)(O)C1(C)O)C23 (stereo not drawn) | inconclusive: 29.1 µM [rising, single point] | 
7 | c1ccc(C2(N3CCCCC3)CCCCC2)cc1 |  | inactive: -8.48%
8 | CC(C)NC1C2CCC(CC2)C1(O)c1ccc(Cl)c(Cl)c1 (stereo not drawn) |  | inactive: -13.4%
9 | CCCCn1c(=O)c(C(=O)Nc2cnccn2)c(O)c2ccccc21 | inconclusive: 1.46 µM [cytotoxic, full curve, poor fit] | 
10 | CCOC(=O)c1cnc(SCc2ccc(Cl)c(Cl)c2)nc1N1CC1 | active: 8.2 µM | 
11 | Cc1cc(C)c(NC2=NCCS2)cc1C |  | inactive: -8.35%
12 | Cc1cc(-n2c(/C=C/c3ccc(Br)s3)nc3ccccc3c2=O)ccc1Br | inconclusive: 2.91 µM [cytotoxic, full curve] | 
13 | CCOc1cc2c(cc1OCC)-n1cccc1C(c1ccccc1OC)NC2 (stereo not drawn) | inconclusive: 23.1 µM [cytotoxic, single point] | 
14 | Cc1cc(-n2c(/C=C/c3cccs3)nc3ccccc3c2=O)ccc1Br |  | inactive: -13.6%
15 | COC12C(COC(N)=O)C3=C(C(=O)C(C)=C(N)C3=O)N1CC1C2N1C (stereo not drawn) | inconclusive: 29.1 µM [cytotoxic, single point] | 
16 | C=C(CO)CC1CC(O)[C@]2(C)OC3CC4OC5C[C@]6(C)O[C@]7(C)CCC8OC9C[C@]%10(C)OC%11C(C)=CC(=O)OC%11CC%10OC9C[C@@H](C)C8OC7CC6O[C@]5(C)C/C=C\C4OC3CC2O1 (stereo partly drawn) | inconclusive: 29.1 µM [cytotoxic, single point] | 
17 | Cn1cccc1/C=C1/C(=O)NC(=S)N(Cc2ccc(F)cc2)C1=O | inconclusive: 5.8 µM [cytotoxic, full curve, poor fit] | 
18 | COC(=O)C1=C(c2cccc(OCc3ccccc3)c2)C[C@@H]2CC[C@H]1N2C(=O)NCc1ccc(Cl)cc1 | inconclusive: 1.64 µM [cytotoxic, partial curve, poor fit] | 
19 | Cc1ccc2c(c1)C1CN(C)CCC1N2C(=O)Nc1cccc(Cl)c1 (stereo not drawn) | inconclusive: 18.4 µM [cytotoxic, partial curve] | 
20 | Nc1ncnc2c1ccn2[C@@H]1O[C@H](CO)[C@@H](O)[C@H]1O | active: 0.206 µM | 
21 | Cc1ccc(Cn2cc(C=O)c(-c3ccc(C)cc3)n2)cc1 | active: 16.4 µM | 
22 | Cc1ccc(Cc2c(C)nc3nc(SCC(=O)N4CCC5(CC4)OCCO5)nn3c2C)cc1 | inconclusive: 29.1 µM [cytotoxic, single point] | 
23 | CCN(CC)C1=NC(=[N+](CC)CC)c2ccccc21 |  | inactive: -2.6%
24 | CN(C)C(=O)Oc1ccc(OCc2cccc[n+]2C)cc1 | inconclusive: 10.3 µM [rising, partial curve, poor fit] | 

Row | Structure (SMILES) | Potency | activity change, negative = cytotoxicity
25 | Cc1nc2ccccn2c1P(=S)(c1ccccc1)c1ccccc1 | inconclusive: 23.1 µM [cytotoxic, single point] | 
26 | CCN(CC)c1ccc(N=Cc2c(O)n(CCc3ccc(OC)c(OC)c3)c(=O)[nH]c2=O)cc1 | active: 16.4 µM | 
27 | O=C1NC(=O)C(=Cc2ccc(-c3ccc(F)cc3O)o2)C(=O)N1 |  | inactive: 15.4%
28 | CC1CCC(NCCc2ccc3c(c2)OCO3)CC1 (stereo not drawn) | inconclusive: 29.1 µM [cytotoxic, single point] | 
29 | O=C(c1ccccc1)c1cn(CC(=O)N2CCCc3ccccc32)c2ccccc12 | inconclusive: 5.17 µM [cytotoxic, partial curve] | 
30 | CSc1ccc(CN2CCN(Cc3ccccc3Cl)CC2)cc1 |  | inactive: -1.26%
31 | S=C1NC2(CCCCC2)NC12CCCCC2 |  | inactive: 7.31%
32 | C=CCn1c(O)c(C(C)=NCc2cc(OC)cc(OC)c2)c(=O)[nH]c1=O | active: 3.26 µM | 
33 | COC(=O)C1=C(c2cc3ccccc3s2)C[C@@H]2CC[C@H]1N2C(=O)NCC1CC1 |  | inactive: 0%
34 | O=C1C2CCCC1C(N1CCCCC1)CC2 (stereo not drawn) |  | inactive: 0%
35 | CCC(=NCCCn1ccnc1)c1c(O)n(-c2ccccc2)c(=O)[nH]c1=O | inconclusive: 29.1 µM [rising, single point] | 
36 | C[C@H]1O[C@@H](OC2CC[C@]3(C=O)[C@H]4CC[C@]5(C)[C@@H](C6=CC(=O)OC6)CC[C@]5(O)[C@@H]4CC[C@]3(O)C2)CC2OC(C)(C)OC21 (stereo partly drawn) |  | inconclusive: 7.09%
37 | c1ccc(-c2ccc(-c3n(-c4ccccn4)c4ccccc4[n+]3-c3ccccn3)cc2)cc1 | inconclusive: 16.4 µM [cytotoxic, single point] | 
38 | CCC(=O)c1cn(Cc2ccc(C#N)cc2)c2ccccc12 | inconclusive: 2.59 µM [cytotoxic, partial curve, poor fit] | 
39 | CCOP(=O)(Cc1ccc(C#N)o1)OCC |  | inactive: 15.8%
40 | Cc1nn(Cc2ccccc2Cl)c(Cl)c1C(=O)OCC(=O)NC(=O)NC1CCCCC1 | active: 16.4 µM | 
41 | CC(C)c1ccc(N2C(=O)NC(=O)/C(=C\c3cnc(-c4ccccc4)nc3)C2=O)cc1 | inconclusive: 20.6 µM [rising, partial curve, poor fit] | 
42 | CN(C)Cc1ccccc1OC(=O)N(C)C |  | inactive: -7.47%
43 | COc1ccc(C(=O)O)cc1OC |  | inactive: 23.1%
44 | COC(=O)C1=C(c2ccc(F)cc2OCc2ccccc2)C[C@@H]2CC[C@H]1N2C(=O)NCc1cccc(C(F)(F)F)c1 | inconclusive: 14.6 µM [cytotoxic, single point] | 
45 | CNCC(O)c1cccc(OC(=O)c2ccccc2C)c1 (stereo not drawn) |  | inactive: 0%
46 | C#C[C@@]1(O)CCC2C3CCC4=C/C(=N/OCC(=O)NC(C(=O)NC(CC(C)C)C(=O)O)C(C)C)CC[C@]4(C)C3CC[C@@]21C (stereo partly drawn) | inconclusive: 29.1 µM [rising, single point] | 
47 | CC1([N+](=O)[O-])COP(=O)(Nc2ccc(Cl)cc2)OC1 (stereo not drawn) |  | inactive: -17.9%
48 | COC(=O)C1=C(c2ccc(-c3ccccc3)c(F)c2)C[C@@H]2CC[C@H]1N2C(=O)NCC1CC1 | inconclusive: 16.4 µM [cytotoxic, single point] | 

By substructure: those above containing a furan ring, fused or not
Row | Structure (SMILES) | Potency | activity change, negative = cytotoxicity
27 | O=C1NC(=O)C(=Cc2ccc(-c3ccc(F)cc3O)o2)C(=O)N1 |  | inactive: 15.4%
39 | CCOP(=O)(Cc1ccc(C#N)o1)OCC |  | inactive: 15.8%
